Assay results from the supplement of paper PMC10849652.
The other results are listed elsewhere or left out.

Chains of the proteins cited; added tags and fusions are not shown. Lines headed by an entry give the natural chain unless they say otherwise; changes in a name come on top.
UniProt Q6NUK4: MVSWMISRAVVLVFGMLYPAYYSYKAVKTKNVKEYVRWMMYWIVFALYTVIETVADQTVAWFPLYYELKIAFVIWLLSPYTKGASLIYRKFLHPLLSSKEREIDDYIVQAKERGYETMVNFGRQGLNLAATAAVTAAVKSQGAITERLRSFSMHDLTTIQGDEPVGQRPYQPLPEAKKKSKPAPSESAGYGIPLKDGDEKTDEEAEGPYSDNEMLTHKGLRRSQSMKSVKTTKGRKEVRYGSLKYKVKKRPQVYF
UniProt Q9UKL0, whole entry, looked up: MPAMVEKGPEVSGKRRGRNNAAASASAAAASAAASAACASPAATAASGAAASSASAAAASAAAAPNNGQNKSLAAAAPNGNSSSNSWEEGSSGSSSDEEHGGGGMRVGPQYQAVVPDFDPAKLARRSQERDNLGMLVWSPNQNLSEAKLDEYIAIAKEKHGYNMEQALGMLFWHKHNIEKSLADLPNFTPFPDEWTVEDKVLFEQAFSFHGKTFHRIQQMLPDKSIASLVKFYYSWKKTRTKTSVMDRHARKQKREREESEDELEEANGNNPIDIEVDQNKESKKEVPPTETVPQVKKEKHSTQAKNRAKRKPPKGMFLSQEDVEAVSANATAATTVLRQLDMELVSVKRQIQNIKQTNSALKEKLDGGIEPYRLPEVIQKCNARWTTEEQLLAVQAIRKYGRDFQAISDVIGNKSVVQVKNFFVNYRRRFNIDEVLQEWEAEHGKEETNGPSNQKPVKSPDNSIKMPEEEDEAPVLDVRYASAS
UniProt O60673: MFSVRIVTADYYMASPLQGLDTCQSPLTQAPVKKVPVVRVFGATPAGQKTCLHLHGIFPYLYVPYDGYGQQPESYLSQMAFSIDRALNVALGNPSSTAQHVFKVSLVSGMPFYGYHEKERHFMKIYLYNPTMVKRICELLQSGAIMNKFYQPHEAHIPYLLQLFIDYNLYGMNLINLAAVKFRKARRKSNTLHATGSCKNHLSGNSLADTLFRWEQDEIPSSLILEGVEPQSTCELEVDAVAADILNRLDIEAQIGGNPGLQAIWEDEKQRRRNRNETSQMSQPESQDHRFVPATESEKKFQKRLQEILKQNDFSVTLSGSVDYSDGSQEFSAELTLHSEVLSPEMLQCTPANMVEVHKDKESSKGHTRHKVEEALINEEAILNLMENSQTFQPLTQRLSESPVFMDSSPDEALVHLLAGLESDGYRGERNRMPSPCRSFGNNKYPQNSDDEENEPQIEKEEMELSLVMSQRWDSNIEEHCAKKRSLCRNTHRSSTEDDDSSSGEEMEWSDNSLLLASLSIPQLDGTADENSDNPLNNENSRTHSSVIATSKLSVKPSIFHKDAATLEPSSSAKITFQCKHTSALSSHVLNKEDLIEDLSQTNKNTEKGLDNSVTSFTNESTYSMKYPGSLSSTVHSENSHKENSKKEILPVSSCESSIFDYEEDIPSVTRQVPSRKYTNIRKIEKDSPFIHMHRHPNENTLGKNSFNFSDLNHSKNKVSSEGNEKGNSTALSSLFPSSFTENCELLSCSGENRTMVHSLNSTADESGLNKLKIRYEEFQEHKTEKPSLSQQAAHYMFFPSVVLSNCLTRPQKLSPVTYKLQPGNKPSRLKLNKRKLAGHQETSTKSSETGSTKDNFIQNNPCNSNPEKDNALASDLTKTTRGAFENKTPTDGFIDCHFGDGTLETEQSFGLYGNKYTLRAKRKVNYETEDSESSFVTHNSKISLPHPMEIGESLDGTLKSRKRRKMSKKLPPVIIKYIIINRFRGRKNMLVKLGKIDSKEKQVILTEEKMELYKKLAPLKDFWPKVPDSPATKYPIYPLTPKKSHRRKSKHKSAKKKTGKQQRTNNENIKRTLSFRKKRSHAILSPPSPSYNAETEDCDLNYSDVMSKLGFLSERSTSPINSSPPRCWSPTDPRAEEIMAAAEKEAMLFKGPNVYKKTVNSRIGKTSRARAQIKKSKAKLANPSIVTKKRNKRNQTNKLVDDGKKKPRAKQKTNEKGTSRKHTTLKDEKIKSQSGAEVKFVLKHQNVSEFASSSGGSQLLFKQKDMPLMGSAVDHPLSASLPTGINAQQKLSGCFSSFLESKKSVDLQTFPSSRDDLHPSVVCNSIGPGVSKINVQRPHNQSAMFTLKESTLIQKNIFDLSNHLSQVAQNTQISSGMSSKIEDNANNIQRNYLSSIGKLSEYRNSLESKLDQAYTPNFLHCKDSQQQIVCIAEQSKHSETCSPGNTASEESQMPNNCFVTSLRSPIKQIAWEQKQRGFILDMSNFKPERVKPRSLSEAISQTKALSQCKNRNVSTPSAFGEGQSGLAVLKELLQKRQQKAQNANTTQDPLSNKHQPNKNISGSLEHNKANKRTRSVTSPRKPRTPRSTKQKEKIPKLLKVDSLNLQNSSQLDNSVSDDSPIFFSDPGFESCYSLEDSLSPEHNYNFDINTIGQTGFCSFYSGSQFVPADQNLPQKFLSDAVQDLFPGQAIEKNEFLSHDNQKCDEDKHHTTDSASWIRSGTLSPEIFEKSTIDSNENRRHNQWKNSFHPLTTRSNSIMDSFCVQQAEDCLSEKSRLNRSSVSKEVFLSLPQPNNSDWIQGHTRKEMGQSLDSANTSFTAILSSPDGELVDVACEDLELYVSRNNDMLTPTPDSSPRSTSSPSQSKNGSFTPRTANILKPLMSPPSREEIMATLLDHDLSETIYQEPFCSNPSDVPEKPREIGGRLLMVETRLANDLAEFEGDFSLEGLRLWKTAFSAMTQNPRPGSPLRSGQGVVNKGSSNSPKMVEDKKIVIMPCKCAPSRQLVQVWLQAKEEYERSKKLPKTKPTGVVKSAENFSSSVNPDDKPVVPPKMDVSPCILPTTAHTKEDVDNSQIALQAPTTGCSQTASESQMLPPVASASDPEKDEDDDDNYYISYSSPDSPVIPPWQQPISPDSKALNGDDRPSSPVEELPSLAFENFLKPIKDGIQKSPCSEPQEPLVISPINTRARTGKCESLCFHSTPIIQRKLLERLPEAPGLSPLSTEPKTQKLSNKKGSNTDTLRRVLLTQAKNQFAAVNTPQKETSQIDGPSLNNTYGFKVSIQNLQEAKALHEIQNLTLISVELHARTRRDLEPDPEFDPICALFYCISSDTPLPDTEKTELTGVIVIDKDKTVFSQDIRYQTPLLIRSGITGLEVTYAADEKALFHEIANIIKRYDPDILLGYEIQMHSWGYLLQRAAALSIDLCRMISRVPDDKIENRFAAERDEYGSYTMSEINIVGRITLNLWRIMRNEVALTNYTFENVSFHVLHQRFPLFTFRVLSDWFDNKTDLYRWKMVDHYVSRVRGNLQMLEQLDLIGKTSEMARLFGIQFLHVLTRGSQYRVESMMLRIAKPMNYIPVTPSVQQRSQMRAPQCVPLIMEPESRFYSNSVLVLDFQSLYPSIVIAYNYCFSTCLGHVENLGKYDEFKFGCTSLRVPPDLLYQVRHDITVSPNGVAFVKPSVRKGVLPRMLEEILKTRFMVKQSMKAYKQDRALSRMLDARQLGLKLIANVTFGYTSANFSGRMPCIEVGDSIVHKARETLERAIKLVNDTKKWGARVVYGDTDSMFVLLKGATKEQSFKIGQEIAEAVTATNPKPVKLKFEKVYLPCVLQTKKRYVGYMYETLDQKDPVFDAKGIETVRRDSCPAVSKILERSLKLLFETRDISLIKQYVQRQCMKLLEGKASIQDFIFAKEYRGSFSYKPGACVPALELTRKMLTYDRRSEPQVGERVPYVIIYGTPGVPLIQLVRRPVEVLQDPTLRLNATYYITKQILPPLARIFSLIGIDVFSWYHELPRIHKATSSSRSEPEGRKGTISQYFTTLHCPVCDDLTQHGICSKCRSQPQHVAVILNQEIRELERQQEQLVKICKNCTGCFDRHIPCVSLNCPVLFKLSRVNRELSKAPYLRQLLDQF
UniProt Q96PK6: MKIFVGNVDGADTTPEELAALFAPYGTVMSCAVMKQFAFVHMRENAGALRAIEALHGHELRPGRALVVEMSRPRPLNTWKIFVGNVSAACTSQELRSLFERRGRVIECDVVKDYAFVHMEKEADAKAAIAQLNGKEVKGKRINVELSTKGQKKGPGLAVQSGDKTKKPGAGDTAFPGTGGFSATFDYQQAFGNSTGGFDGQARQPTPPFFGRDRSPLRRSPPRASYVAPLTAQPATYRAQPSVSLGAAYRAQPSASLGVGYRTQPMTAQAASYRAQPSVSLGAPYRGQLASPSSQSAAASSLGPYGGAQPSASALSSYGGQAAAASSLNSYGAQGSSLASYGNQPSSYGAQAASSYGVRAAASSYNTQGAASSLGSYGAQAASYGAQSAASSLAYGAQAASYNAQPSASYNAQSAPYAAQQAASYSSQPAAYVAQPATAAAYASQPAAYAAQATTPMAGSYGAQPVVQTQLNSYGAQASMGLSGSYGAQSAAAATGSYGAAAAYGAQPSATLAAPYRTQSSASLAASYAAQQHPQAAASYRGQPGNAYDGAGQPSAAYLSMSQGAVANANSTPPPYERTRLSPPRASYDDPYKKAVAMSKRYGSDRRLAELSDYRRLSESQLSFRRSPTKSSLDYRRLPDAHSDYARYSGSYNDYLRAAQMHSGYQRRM
UniProt Q5T8P6: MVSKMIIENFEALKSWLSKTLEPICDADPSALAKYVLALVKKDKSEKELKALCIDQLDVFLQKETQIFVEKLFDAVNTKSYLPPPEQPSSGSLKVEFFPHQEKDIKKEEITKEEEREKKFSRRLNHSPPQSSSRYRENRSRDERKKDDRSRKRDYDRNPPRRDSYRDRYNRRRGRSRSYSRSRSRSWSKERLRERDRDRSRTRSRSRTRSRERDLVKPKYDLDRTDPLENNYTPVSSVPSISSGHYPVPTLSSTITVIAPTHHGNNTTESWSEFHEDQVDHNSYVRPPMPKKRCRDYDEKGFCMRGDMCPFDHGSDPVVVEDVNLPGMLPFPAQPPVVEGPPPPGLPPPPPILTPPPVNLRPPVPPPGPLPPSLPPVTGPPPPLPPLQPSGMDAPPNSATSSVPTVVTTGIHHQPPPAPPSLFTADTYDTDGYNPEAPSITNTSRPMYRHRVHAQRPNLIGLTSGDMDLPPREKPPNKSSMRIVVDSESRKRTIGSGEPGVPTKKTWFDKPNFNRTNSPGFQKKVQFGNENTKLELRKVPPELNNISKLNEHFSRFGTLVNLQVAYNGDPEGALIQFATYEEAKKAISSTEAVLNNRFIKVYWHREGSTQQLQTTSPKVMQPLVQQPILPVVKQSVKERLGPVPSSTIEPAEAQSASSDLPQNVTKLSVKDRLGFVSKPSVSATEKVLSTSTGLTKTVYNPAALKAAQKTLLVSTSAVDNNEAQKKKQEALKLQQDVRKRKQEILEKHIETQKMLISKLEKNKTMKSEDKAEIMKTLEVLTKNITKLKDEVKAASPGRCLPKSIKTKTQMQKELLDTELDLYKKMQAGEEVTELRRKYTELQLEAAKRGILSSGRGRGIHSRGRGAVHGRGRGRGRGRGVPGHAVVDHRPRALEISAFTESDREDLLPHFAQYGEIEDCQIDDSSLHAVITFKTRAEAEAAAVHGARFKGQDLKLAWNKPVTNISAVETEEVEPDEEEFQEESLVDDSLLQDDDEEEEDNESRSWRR
UniProt Q8TEB9: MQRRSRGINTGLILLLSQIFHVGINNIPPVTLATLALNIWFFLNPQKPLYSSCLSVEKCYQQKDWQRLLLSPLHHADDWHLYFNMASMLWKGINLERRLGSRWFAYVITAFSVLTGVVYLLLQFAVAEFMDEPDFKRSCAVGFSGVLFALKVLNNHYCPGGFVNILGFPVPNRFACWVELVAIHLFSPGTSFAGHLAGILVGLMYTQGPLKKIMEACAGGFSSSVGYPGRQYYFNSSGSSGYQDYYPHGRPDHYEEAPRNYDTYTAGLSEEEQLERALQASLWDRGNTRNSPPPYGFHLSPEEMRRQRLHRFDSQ
UniProt P98179: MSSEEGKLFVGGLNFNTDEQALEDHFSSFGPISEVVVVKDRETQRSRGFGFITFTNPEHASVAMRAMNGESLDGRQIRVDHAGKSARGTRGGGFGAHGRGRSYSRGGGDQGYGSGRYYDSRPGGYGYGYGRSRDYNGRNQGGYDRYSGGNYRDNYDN
UniProt Q86U06: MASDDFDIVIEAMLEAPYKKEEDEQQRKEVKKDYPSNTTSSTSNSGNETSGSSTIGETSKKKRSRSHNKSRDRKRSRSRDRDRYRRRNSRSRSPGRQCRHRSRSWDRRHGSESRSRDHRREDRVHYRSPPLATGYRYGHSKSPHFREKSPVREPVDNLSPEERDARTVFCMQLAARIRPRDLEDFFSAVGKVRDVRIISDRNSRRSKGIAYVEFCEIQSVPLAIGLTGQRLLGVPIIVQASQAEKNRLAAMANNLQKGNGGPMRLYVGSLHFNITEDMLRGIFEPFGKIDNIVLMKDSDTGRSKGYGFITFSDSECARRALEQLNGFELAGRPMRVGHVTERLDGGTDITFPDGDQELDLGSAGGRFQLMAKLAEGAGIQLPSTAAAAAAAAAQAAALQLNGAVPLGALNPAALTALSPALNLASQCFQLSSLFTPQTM

Assays:
Assay in all cases: log2 fold change, soluble protein after heating vs DMSO (PISA); higher = thermal stabilisation; K562 lysate, 10 uM; active = over 0.2 and 3.5 SD of the protein, either way, in both replicates (recomputed)
vemurafenib = compound: CCCS(=O)(=O)Nc1ccc(F)c(C(=O)c2c[nH]c3ncc(-c4ccc(Cl)cc4)cc23)c1F [vemurafenib]
In short: (§1)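 K562 pellets were dounce-homogenised in PBS pH 7.4 with 1 mM MgCl2, and the crude extract at 1 mg/mL protein was treated with 10 μM compound for 30 min. Aliquots were heated for 3 min across 48°C-58°C, pooled, and brought to 0.5% NP-40 at 4°C; soluble protein was the supernatant after 21,000xg for 90 min. Soluble protein was quantified by TMTpro 16plex LC-MS/MS with channel sums equalised, and reported as log2 fold change in thermal stability against DMSO controls, with values from duplicates.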

[1] = compound: CCCS(=O)(=O)Nc1ccc(F)c(C(=O)c2c[nH]c3ncc(Cl)cc23)c1F
In short: as §1

barasertib = compound: CCN(CCCOc1ccc2c(Nc3cc(CC(=O)Nc4cccc(F)c4)[nH]n3)ncnc2c1)CCOP(=O)(O)O [barasertib]
In short: as §1

volasertib = compound: CC[C@@H]1C(=O)N(C)c2cnc(Nc3ccc(C(=O)N[C@H]4CC[C@H](N5CCN(CC6CC6)CC5)CC4)cc3OC)nc2N1C(C)C [volasertib]
In short: as §1

[2] = compound: CCn1c(C(=O)N(C2CC2)C2CC2)cc2c3c(ncn3C)c(Nc3cc(C)n(C)n3)nc21
In short: as §1

[3] = compound: CCn1cc(-c2ccnc3[nH]c(-c4cccc(CN(C)C)c4)cc23)c(-c2ccc(NC(=O)N(C)C)cc2)n1
In short: as §1

[4] = compound: CN1CCC(CNc2ccc3ncc(-c4cccc(OC(F)(F)F)c4)n3n2)CC1
In short: as §1

sotrastaurin = compound: CN1CCN(c2nc(C3=C(c4c[nH]c5ccccc45)C(=O)NC3=O)c3ccccc3n2)CC1 [sotrastaurin]
In short: as §1

[5] = compound: CC[C@@H]1C(=O)N(C)c2cnc(Nc3ccc(C(=O)NC4CCN(C)CC4)cc3OC)nc2N1C1CCCC1
In short: as §1

saracatinib = compound: CN1CCN(CCOc2cc(OC3CCOCC3)c3c(Nc4c(Cl)ccc5c4OCO5)ncnc3c2)CC1 [saracatinib]
In short: as §1

Measured: log2 fold change

REEP3 (UniProt Q6NUK4)
inactive: vemurafenib 0.048 | [1] -0.04 | barasertib 0.035 | volasertib -0.053 | [2] -0.035 | [3] -0.006 | [4] -0.051 | sotrastaurin 0.031

RCOR1 (UniProt Q9UKL0)
inactive: vemurafenib 0.028 | [1] -0.03 | barasertib 0.108 | [5] -0.008 | volasertib 0.003 | [2] -0.001 | [3] -0.071 | [4] 0.017 | saracatinib 0.001 | sotrastaurin 0.004

RBM47
inactive: vemurafenib 0.054 | [1] 0.021 | volasertib -0.101 | [2] -0.199 | [3] -0.286 | [4] 0.11 | saracatinib 0.025

REV3L (UniProt O60673)
inactive: vemurafenib 0.051 | [1] 0.111 | barasertib 0.065 | [5] 0.111 | volasertib 0.013 | [2] -0.237 | saracatinib 0.044 | sotrastaurin -0.042

REPS1 (UniProt Q96D71)
inactive: vemurafenib -0.018 | [1] 0.033 | barasertib 0.019 | [5] 0.054 | volasertib -0.03 | [2] -0.011 | [3] -0.086 | [4] 0.009 | saracatinib 0.008 | sotrastaurin 0.001

REST (UniProt Q13127)
inactive: vemurafenib 0.135 | [1] -0.013 | volasertib 0.006 | [2] 0.009 | saracatinib -0.052 | sotrastaurin -0.044

RBM14 (UniProt Q96PK6)
inactive: vemurafenib -0.049 | [1] 0.062 | barasertib -0.016 | [5] -0.042 | volasertib -0.026 | [2] 0.086 | [3] 0.064 | [4] 0.039 | saracatinib -0.002 | sotrastaurin -0.071

RBBP5 (UniProt Q15291)
inactive: vemurafenib -0.03 | [1] 0.014 | barasertib -0.009 | [5] 0.051 | volasertib 0.018 | [2] -0.029 | [3] 0.002 | [4] 0.013 | saracatinib -0.03 | sotrastaurin 0.032

RCSD1 (UniProt Q6JBY9)
inactive: vemurafenib 0.022 | [1] 0.003 | barasertib -0.024 | [5] 0.05 | volasertib 0.02 | [2] -0.028 | [3] 0.003 | [4] 0.005 | saracatinib -0.007 | sotrastaurin 0.035

RBM26 isoform 2 (UniProt Q5T8P6)
inactive: vemurafenib 0.012 | [1] 0.014 | barasertib 0.032 | [5] -0.005 | volasertib -0.008 | [2] 0.011 | [3] 0.138 | [4] -0.124 | saracatinib 0.027 | sotrastaurin 0.021

RHBDD1 (UniProt Q8TEB9)
inactive: vemurafenib 0.105 | [1] -0.08 | barasertib -0.05 | [5] -0.16 | volasertib -0.074 | [3] 0.016 | [4] -0.029

RETREG2 (UniProt Q8NC44)
inactive: vemurafenib 0.037 | [1] -0.036 | barasertib 0.033 | [5] -0.009 | volasertib 0.09 | [2] -0.086 | [3] -0.261 | [4] 0.014 | sotrastaurin 0.112

RFC2 (UniProt P35250)
inactive: vemurafenib -0.043 | [1] 0.007 | barasertib 0.038 | [5] -0.095 | volasertib -0.09 | [2] 0.024 | [3] -0.068 | [4] 0.023 | saracatinib -0.005 | sotrastaurin 0.03

RBM3 (UniProt P98179)
inactive: vemurafenib -0.032 | [1] -0.011 | barasertib -0.105 | [5] -0.078 | volasertib -0.007 | [2] 0.076 | [3] 0.059 | [4] -0.01 | saracatinib -0.008 | sotrastaurin 0.071

Pulled one by one from the list above (2):
RETREG2 (UniProt Q8NC44)
inactive: vemurafenib 0.037 | [1] -0.036 | barasertib 0.033 | [5] -0.009 | volasertib 0.09 | [2] -0.086 | [3] -0.261 | [4] 0.014 | sotrastaurin 0.112

RHBDD1 (UniProt Q8TEB9)
inactive: vemurafenib 0.105 | [1] -0.08 | barasertib -0.05 | [5] -0.16 | volasertib -0.074 | [3] 0.016 | [4] -0.029

(continued)

RBMX2 (UniProt Q9Y388)
inactive: vemurafenib -0.008 | [1] 0.102 | volasertib -0.085 | saracatinib 0.071

RBM23 isoform 2 (UniProt Q86U06)
inactive: vemurafenib 0.2 | [1] 0.02 | barasertib 0.234 | [5] -0.153 | volasertib -0.011 | [2] 0.058 | [3] -0.01 | [4] -0.143 | saracatinib 0.064 | sotrastaurin 0.131
